# Measured values from the supplement of paper PMC10032668.
# Chains of the proteins cited; added tags and fusions are not shown.
# MORF4L2, Q15014, UniProt Q15014, whole entry: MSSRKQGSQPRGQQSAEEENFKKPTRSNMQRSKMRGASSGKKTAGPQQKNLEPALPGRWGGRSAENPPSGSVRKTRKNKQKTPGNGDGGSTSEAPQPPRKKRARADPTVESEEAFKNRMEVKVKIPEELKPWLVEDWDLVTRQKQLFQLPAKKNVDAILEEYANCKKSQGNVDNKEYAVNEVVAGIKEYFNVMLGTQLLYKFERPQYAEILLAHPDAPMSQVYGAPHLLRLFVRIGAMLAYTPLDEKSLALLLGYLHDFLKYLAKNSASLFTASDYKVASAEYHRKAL
# PLK1, P53350, UniProt P53350, whole entry: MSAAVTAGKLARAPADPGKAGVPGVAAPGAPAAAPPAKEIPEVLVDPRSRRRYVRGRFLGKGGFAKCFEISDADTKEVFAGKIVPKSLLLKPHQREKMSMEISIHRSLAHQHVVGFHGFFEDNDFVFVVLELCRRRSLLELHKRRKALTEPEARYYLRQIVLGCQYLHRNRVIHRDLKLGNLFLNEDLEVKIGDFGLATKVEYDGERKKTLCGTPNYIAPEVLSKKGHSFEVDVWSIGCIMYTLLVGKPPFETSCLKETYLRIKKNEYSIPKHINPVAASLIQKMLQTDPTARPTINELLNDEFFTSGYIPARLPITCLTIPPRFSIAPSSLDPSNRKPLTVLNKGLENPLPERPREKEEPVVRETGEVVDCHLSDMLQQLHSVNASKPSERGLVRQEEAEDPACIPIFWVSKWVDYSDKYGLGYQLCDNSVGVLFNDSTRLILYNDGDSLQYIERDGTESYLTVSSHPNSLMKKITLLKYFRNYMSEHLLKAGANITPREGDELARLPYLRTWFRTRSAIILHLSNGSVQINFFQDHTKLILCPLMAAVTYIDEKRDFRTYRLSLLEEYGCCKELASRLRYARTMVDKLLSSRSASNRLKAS
# CAPZB, P47756, UniProt P47756, whole entry: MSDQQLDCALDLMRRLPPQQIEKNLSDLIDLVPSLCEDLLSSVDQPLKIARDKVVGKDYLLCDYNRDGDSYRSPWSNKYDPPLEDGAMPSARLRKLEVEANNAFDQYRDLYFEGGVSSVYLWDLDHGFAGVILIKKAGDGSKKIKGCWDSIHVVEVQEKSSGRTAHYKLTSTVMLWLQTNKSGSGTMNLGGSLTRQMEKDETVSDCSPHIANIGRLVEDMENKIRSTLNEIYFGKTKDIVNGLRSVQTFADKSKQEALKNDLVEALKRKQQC
# CD2AP, Q9Y5K6, UniProt Q9Y5K6, whole entry: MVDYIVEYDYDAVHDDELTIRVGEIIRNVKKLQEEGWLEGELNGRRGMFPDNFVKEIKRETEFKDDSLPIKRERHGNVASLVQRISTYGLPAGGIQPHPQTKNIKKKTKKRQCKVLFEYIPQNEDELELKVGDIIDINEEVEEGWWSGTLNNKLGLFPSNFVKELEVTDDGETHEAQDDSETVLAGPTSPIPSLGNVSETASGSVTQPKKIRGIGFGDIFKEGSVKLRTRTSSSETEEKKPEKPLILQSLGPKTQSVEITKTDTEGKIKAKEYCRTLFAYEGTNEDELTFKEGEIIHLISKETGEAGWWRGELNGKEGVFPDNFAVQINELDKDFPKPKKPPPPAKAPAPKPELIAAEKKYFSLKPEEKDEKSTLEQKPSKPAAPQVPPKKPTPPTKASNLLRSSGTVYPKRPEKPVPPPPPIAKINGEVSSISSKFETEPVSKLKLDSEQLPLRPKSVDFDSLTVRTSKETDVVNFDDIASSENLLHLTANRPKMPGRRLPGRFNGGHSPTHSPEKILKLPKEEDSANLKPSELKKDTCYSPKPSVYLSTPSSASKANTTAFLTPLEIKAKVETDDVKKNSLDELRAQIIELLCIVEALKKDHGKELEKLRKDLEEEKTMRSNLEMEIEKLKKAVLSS
# DLX6, P56179, UniProt P56179, whole entry: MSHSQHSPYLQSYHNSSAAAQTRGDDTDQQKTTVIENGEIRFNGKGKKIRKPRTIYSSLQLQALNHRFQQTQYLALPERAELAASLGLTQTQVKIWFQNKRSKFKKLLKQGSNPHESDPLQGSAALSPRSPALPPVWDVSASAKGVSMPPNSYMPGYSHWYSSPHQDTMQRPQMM
# CCNB1, P14635, UniProt P14635, whole entry: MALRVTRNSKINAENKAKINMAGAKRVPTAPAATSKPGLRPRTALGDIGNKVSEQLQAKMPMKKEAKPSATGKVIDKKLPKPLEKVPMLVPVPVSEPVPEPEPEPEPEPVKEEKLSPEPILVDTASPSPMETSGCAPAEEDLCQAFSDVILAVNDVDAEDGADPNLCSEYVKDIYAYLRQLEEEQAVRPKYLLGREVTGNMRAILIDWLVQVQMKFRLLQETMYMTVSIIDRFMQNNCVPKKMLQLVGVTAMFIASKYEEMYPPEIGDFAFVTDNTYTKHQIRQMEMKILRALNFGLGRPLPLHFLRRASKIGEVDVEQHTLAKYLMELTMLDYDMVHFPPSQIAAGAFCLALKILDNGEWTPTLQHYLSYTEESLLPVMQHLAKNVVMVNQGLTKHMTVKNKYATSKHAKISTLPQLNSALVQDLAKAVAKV
# CDC23, Q9UJX2, UniProt Q9UJX2, whole entry: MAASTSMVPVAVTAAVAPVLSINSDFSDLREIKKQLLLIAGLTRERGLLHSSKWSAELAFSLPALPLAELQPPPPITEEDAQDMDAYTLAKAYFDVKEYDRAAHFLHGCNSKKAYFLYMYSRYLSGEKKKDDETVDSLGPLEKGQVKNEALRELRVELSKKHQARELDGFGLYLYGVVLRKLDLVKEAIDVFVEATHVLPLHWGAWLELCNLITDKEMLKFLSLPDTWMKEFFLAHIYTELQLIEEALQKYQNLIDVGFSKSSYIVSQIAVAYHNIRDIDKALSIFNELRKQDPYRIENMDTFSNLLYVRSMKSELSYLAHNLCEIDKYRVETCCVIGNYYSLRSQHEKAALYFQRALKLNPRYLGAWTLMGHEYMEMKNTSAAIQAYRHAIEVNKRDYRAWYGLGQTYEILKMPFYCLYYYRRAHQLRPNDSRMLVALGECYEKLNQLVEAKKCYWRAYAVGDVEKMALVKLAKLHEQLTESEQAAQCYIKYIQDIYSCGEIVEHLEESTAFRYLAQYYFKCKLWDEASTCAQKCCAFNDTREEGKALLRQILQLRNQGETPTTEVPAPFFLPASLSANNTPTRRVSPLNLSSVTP
# FABP5, Q01469, UniProt Q01469, whole entry: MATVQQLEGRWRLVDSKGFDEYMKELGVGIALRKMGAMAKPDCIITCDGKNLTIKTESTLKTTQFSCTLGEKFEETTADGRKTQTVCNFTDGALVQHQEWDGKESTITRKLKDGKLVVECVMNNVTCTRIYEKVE
# LRPAP1, P30533, UniProt P30533, whole entry: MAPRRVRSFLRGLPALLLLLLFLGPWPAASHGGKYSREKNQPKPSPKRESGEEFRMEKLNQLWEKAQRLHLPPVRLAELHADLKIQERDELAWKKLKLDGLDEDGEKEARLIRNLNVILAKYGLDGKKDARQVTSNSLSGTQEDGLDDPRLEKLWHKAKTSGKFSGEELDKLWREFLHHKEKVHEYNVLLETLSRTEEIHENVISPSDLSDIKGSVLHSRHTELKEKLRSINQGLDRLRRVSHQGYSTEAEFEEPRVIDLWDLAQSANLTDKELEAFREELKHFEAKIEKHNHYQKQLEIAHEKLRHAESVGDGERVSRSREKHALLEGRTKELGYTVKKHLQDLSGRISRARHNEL
# SDC2, P34741, UniProt P34741, whole entry: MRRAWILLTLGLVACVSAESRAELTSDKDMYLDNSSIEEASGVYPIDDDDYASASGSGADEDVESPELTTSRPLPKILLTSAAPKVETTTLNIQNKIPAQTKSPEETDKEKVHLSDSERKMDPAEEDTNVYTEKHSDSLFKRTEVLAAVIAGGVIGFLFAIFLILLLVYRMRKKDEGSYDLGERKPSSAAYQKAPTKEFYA
# CKS2, P33552, UniProt P33552, whole entry: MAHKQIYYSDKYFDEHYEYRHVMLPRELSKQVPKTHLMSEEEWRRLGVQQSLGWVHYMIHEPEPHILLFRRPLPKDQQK
# Some of the results follow. The list holds hits alone, and they repeat only in part.
# Legend:
# Assay in all cases: PRISMA enrichment of interactor (LFQ) in peptide spot vs all other peptide spots (log2 fold change); higher = stronger / more specific binding of the interactor to the peptide
# [1] = target: C19orf53, Q9UNZ5
# Experimental: (§1)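 PRISMA: 221 full-length sORF-encoded peptides (3-15 aa), plus SOS1/GLUT1 control peptides, were spot-synthesized on cellulose membranes in triplicate. Membranes were incubated with HEK293T lysate, and bound proteins were identified by LC-MS/MS with LFQ. Enrichment is the log2 fold change versus all other peptide spots; only significant interactors are listed (cutoff c=6, x0=2.8).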
# [2] = target: CSNK1A1, P48729
# Experimental: as §1
# [3] = target: DECR2, Q9NUI1
# Experimental: as §1
# [4] = target: DNAJC10, Q8IXB1
# Experimental: as §1
# [5] = target: EMG1, Q92979
# Experimental: as §1
# [6] = target: ISCA1, Q9BUE6
# Experimental: as §1
# [7] = target: MORF4L2, Q15014
# Experimental: as §1
# [8] = target: PLK1, P53350
# Experimental: as §1
# [9] = target: POLDIP2, Q9Y2S7
# Experimental: as §1
# [10] = substrate: PPIF, P30405
# Experimental: as §1
# [11] = target: ZNF768, Q9H5H4
# Experimental: as §1
# [12] = target: CAPZB, P47756
# Experimental: as §1
# [13] = target: CD2AP, Q9Y5K6
# Experimental: as §1
# [14] = target: CAV1, Q03135
# Experimental: as §1
# [15] = target: GCAT, O75600
# Experimental: as §1
# [16] = target: NTMT1, Q9BV86
# Experimental: as §1
# [17] = target: USP24, Q9UPU5
# Experimental: as §1
# [18] = target: CBX8, Q9HC52
# Experimental: as §1
# [19] = target: MUC5AC, P98088
# Experimental: as §1
# [20] = target: WDR33, Q9C0J8
# Experimental: as §1
# [21] = target: CCDC178, Q5BJE1
# Experimental: as §1
# [22] = target: CHD8, Q9HCK8
# Experimental: as §1
# [23] = target: COMT, P21964
# Experimental: as §1
# [24] = target: DLX6, P56179
# Experimental: as §1
# [25] = target: LRRTM2, O43300
# Experimental: as §1
# [26] = target: METTL26, Q96S19
# Experimental: as §1
# [27] = target: MRPS16, Q9Y3D3
# Experimental: as §1
# [28] = target: PMPCA, Q10713
# Experimental: as §1
# [29] = target: CCNB1, P14635
# Experimental: as §1
# [30] = target: ELOVL5, Q9NYP7
# Experimental: as §1
# [31] = target: GPHN, Q9NQX3
# Experimental: as §1
# [32] = target: MRPL16, Q9NX20
# Experimental: as §1
# [33] = target: CDC23, Q9UJX2
# Experimental: as §1
# [34] = target: COQ9, O75208
# Experimental: as §1
# [35] = target: CPOX, P36551
# Experimental: as §1
# [36] = target: FABP5, Q01469
# Experimental: as §1
# [37] = target: NCAPG, Q9BPX3
# Experimental: as §1
# [38] = target: CENPB, P07199
# Experimental: as §1
# [39] = target: MRPL10, Q7Z7H8
# Experimental: as §1
# [40] = target: MRPS21, P82921
# Experimental: as §1
# [41] = target: CHMP2A, O43633
# Experimental: as §1
# [42] = target: MARK2, Q7KZI7
# Experimental: as §1
# [43] = target: CKAP2L, Q8IYA6
# Experimental: as §1
# [44] = target: DCAF7, P61962
# Experimental: as §1
# [45] = target: GRB2, P62993
# Experimental: as §1
# [46] = target: LRPAP1, P30533
# Experimental: as §1
# [47] = target: NPC2, P61916
# Experimental: as §1
# [48] = target: RPL26L1, Q9UNX3
# Experimental: as §1
# [49] = target: RTKN, Q9BST9
# Experimental: as §1
# [50] = target: SDC1, P18827
# Experimental: as §1
# [51] = target: SDC2, P34741
# Experimental: as §1
# [52] = target: SDF4, Q9BRK5
# Experimental: as §1
# [53] = target: TRAF7, Q6Q0C0
# Experimental: as §1
# [54] = target: ZNF146, Q15072
# Experimental: as §1
# [55] = target: CKS2, P33552
# Experimental: as §1
# [56] = target: U2SURP, O15042
# Experimental: as §1
# [57] = target: CLIC4, Q9Y696
# Experimental: as §1
# [58] = target: CLINT1, Q14677
# Experimental: as §1
# [59] = target: CLTA, P09496
# Experimental: as §1
# [60] = target: CLTB, P09497
# Experimental: as §1
# [61] = target: CLTC, Q00610
# Experimental: as §1
# [62] = target: CLTCL1, P53675
# Experimental: as §1
# [63] = target: DAZAP1, Q96EP5
# Experimental: as §1
# [64] = target: ORC4, O43929
# Experimental: as §1
# [65] = target: PICALM, Q13492
# Experimental: as §1
# [66] = target: TIA1, P31483
# Experimental: as §1
# [67] = target: CNN2, Q99439
# Experimental: as §1
# [68] = target: PARP2, Q9UGN5
# Experimental: as §1
binder,measurement,setting,value
MQRPMDELCF [ABCA9],PRISMA enrichment of interactor (log2),[1],6.86
same,PRISMA enrichment of interactor (log2),[2],6.81
same,PRISMA enrichment of interactor (log2),[3],5.31
same,PRISMA enrichment of interactor (log2),[4],6.32
same,PRISMA enrichment of interactor (log2),[5],7.5
same,PRISMA enrichment of interactor (log2),[6],3.76
same,PRISMA enrichment of interactor (log2),[7],7.53
same,PRISMA enrichment of interactor (log2),[8],6.34
same,PRISMA enrichment of interactor (log2),[9],7.47
same,PRISMA enrichment of interactor (log2),[10],6.22
same,PRISMA enrichment of interactor (log2),[11],6.04
MAAPRV [COPS5],PRISMA enrichment of interactor (log2),[12],4.8
same,PRISMA enrichment of interactor (log2),[13],9.71
MCPKAPQAGT [KLF9],PRISMA enrichment of interactor (log2),[14],4.41
same,PRISMA enrichment of interactor (log2),[15],6.14
same,PRISMA enrichment of interactor (log2),[16],6.26
same,PRISMA enrichment of interactor (log2),[17],4.67
MRDERSA [DCAF11],PRISMA enrichment of interactor (log2),[18],6.85
same,PRISMA enrichment of interactor (log2),[19],4.23
same,PRISMA enrichment of interactor (log2),[20],5.13
MAVALSAPAIRLSD [DUSP26],PRISMA enrichment of interactor (log2),[21],6.28
same,PRISMA enrichment of interactor (log2),[22],7.08
same,PRISMA enrichment of interactor (log2),[23],4.79
same,PRISMA enrichment of interactor (log2),[24],7.89
same,PRISMA enrichment of interactor (log2),[25],7.35
same,PRISMA enrichment of interactor (log2),[26],10.6
same,PRISMA enrichment of interactor (log2),[27],6.63
same,PRISMA enrichment of interactor (log2),[28],7.07
MFSVIGDKYTYRGSQ [MEOX1],PRISMA enrichment of interactor (log2),[29],3.88
same,PRISMA enrichment of interactor (log2),[30],5.69
same,PRISMA enrichment of interactor (log2),[31],10.9
same,PRISMA enrichment of interactor (log2),[32],5.36
MKATVAVNEL [FAM110B],PRISMA enrichment of interactor (log2),[33],4.01
same,PRISMA enrichment of interactor (log2),[34],6.61
same,PRISMA enrichment of interactor (log2),[35],4.16
same,PRISMA enrichment of interactor (log2),[36],4.58
same,PRISMA enrichment of interactor (log2),[37],5.29
MFQNRVRPLVKKN [CNOT1],PRISMA enrichment of interactor (log2),[38],5.05
same,PRISMA enrichment of interactor (log2),[39],7.37
same,PRISMA enrichment of interactor (log2),[40],5.56
MELVVKVDRGRW [ATG9A],PRISMA enrichment of interactor (log2),[41],7.57
same,PRISMA enrichment of interactor (log2),[42],4.44
MKRVPMNLPPAE [CIPC],PRISMA enrichment of interactor (log2),[43],4.11
same,PRISMA enrichment of interactor (log2),[44],6.15
same,PRISMA enrichment of interactor (log2),[45],5.92
same,PRISMA enrichment of interactor (log2),[46],5.07
same,PRISMA enrichment of interactor (log2),[47],5.18
same,PRISMA enrichment of interactor (log2),[16],6.29
same,PRISMA enrichment of interactor (log2),[48],4.61
same,PRISMA enrichment of interactor (log2),[49],3.93
same,PRISMA enrichment of interactor (log2),[50],4.11
same,PRISMA enrichment of interactor (log2),[51],5.5
same,PRISMA enrichment of interactor (log2),[52],5.55
same,PRISMA enrichment of interactor (log2),[53],6.55
same,PRISMA enrichment of interactor (log2),[54],4
MAAMMAFLRTPLD [RPL17],PRISMA enrichment of interactor (log2),[55],4.92
same,PRISMA enrichment of interactor (log2),[56],4.95
MLLLQGV [FRMD6],PRISMA enrichment of interactor (log2),[57],6.47
MLLWL [MTMR3],PRISMA enrichment of interactor (log2),[58],5.59
same,PRISMA enrichment of interactor (log2),[59],7.69
same,PRISMA enrichment of interactor (log2),[60],7.52
same,PRISMA enrichment of interactor (log2),[61],6.83
same,PRISMA enrichment of interactor (log2),[62],5.21
same,PRISMA enrichment of interactor (log2),[63],5.44
same,PRISMA enrichment of interactor (log2),[64],4.66
same,PRISMA enrichment of interactor (log2),[65],5.42
same,PRISMA enrichment of interactor (log2),[66],5.54
MDPEPR [RFC1],PRISMA enrichment of interactor (log2),[67],5.1
same,PRISMA enrichment of interactor (log2),[68],4.48

# Quoted at random: 3 entries already listed
binder,measurement,setting,value
MFSVIGDKYTYRGSQ [MEOX1],PRISMA enrichment of interactor (log2),[32],5.36
same,PRISMA enrichment of interactor (log2),[30],5.69
MKRVPMNLPPAE [CIPC],PRISMA enrichment of interactor (log2),[47],5.18
